No constants are given. Whether binding was seen depends on the method and setting. In cells and extracts the contact can be indirect. Here binding means that the protein was enriched with, or labelled near, the bait; the list need not be complete.

The chains behind the UniProt entries cited, without tags or fusion partners. Where a name states a change or a piece, a line headed by the entry shows the natural chain unless it says otherwise.
UniProt P10637: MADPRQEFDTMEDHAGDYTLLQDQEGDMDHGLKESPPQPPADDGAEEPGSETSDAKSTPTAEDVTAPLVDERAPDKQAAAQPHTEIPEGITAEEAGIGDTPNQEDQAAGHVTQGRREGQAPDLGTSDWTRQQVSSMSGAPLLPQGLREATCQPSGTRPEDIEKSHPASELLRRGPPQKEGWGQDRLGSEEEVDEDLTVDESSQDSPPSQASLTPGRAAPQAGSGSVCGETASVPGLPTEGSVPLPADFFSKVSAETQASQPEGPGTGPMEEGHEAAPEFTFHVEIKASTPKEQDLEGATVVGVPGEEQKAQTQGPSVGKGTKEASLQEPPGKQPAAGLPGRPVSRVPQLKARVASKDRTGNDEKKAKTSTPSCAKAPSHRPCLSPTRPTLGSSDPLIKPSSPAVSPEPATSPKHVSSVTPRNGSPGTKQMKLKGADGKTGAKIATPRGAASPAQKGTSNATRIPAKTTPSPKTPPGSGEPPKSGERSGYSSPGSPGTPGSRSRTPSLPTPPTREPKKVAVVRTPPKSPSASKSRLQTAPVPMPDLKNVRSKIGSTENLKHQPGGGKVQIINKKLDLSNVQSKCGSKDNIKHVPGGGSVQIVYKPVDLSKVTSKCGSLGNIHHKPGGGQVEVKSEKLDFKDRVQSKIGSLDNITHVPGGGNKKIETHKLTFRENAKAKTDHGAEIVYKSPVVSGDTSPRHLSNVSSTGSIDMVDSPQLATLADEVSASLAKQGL
UniProt Q6PCN3: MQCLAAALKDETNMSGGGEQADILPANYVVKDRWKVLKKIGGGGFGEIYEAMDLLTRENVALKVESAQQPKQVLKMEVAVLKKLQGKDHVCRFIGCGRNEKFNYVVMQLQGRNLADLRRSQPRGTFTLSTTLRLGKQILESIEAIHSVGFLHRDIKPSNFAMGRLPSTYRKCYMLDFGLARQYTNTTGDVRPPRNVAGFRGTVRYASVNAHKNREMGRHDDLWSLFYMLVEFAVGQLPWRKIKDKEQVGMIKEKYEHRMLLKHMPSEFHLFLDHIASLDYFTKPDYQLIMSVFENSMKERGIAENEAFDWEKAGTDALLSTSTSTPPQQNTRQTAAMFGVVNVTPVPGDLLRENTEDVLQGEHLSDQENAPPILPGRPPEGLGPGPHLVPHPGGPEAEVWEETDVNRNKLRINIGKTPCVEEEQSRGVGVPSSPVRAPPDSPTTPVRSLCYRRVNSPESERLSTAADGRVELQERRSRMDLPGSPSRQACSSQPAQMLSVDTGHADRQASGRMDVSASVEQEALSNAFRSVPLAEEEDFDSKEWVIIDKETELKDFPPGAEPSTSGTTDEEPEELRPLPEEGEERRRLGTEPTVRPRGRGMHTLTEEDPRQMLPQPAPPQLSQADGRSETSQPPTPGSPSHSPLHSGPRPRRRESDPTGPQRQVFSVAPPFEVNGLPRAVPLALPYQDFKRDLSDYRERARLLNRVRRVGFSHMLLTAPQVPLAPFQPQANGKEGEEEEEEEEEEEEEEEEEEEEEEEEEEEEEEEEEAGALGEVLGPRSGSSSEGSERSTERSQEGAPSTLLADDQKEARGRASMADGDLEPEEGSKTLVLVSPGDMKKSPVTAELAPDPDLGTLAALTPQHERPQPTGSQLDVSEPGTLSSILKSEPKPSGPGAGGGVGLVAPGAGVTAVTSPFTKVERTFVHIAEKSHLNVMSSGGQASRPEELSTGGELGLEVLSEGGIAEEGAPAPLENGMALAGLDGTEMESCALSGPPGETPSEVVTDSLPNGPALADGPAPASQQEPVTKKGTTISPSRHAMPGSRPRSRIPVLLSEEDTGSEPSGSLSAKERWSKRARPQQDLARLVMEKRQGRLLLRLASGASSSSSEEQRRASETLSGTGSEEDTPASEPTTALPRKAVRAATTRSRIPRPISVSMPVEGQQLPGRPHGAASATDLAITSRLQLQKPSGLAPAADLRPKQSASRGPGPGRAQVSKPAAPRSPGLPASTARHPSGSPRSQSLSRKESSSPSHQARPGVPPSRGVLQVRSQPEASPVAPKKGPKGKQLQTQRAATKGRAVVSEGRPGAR

For this assay, the target named is Tau (mouse (endogenous in Raw264.7)) (UniProt P10637). Put plainly: affinity purification with mass spectrometry; control and Tau knockout Raw264.7 cells treated with or without 10 µM biotin-labelled dexamethasone for 30 min; lysate on streptavidin magnetic particles 2 h at 4 °C; eluted with 0.1 M glycine-HCl pH 2.5; mass spectrometry.

Turning to “TTBK1 kinase (from UniProt Q6PCN3 1-1308) (enzyme)”, the binding result is “binds”.

B1: serine/threonine protein kinase Nek9 (enzyme, UniProt Q8K1R7 1-984)
chain: MSVLGEYERHCDSINSDFGSESGGGGDSGPGPSAVPGPRAGGGAAEQEELHYIPIRVLGRGAFGEATLYRRTEDDSLVVWKEVDLTRLSEKERRDALNEIVILALLQHDNIIAYYNHFMDNTTLLIELEYCNGGNLYDKILRQKDKLFEEEMVVWYLFQIVSAVSCIHKAGILHRDIKTLNIFLTKANLIKLGDYGLAKKLNSEYSMAETLVGTPYYMSPELCQGVKYNFKSDIWAVGCVIFELLTLKRTFDATNPLNLCVKIVQGIRAMEVDSSQYSLELIQLVHACLDQDPEQRPAADALLDLPLLRTRRREMEEKVTLLNAPTKRPRSSTVTEAPIAVVTSRTSEVYVWGGGKSTPQKLDVIKSGCSARQVCAGNTHFAVVTVEKELYTWVNMQGGTKLHGQLGHGDKASYRQPKHVEKLQGKAIHQVSCGDDFTVCVTDEGQLYAFGSDYYGCMGVDKVSGPEVLEPMQLNFFLSNPVEQVSCGDNHVVVLTRNKEVYSWGCGEYGRLGLDSEEDYYTPQRVDVPKALIIVAVQCGCDGTFLLTQSGKVLACGLNEFNKLGLNQCMSGIINHEAYHEVPYTTSFTLAKQLSFYKIRTIAPGKTHTAAIDERGRLLTFGCNKCGQLGVGNYKKRLGINLLGGPLGGKQVIRVSCGDEFTIAATDDNHIFAWGNGGNGRLAMTPTERPHGSDICTSWPRPIFGSLHHVPDLSCRGWHTILIVEKVLNSKTIRSNSSGLSIGTVVQSSSPGGGIGGGGGGGGGGGGEEEDSQQESETPDPSGGFRGTMEADRGMEGLISPTEAVGNSCGASSSCPGWLRKELENAEFIPMPDSPAPLSAAFSQSEKDTLPYEELQGLKVASEVPPEPQRAAGAWPPRLDPAVPCVGKALTSAACACSALQVEVDRLQALVLKCLEEQQKLQQENLQMFTQLQKLNKKLEGGQQVGMHSRGTQTAKEEMEMDPKPDLDSESWCLLGTDSCRPSL
For the molecule B1, the binding entry is listed as “binds”.

B2: serine/threonine protein kinase TAO1 (enzyme, UniProt Q5F2E8 1-1001)
chain: MPSTNRAGSLKDPEIAELFFKEDPEKLFTDLREIGHGSFGAVYFARDVRTNEVVAIKKMSYSGKQSTEKWQDIIKEVKFLQRIKHPNSIEYKGCYLREHTAWLVMEYCLGSASDLLEVHKKPLQEVEIAAITHGALQGLAYLHSHTMIHRDIKAGNILLTEPGQVKLADFGSASMASPANSFVGTPYWMAPEVILAMDEGQYDGKVDVWSLGITCIELAERKPPLFNMNAMSALYHIAQNESPTLQSNEWSDYFRNFVDSCLQKIPQDRPTSEELLKHMFVLRERPETVLIDLIQRTKDAVRELDNLQYRKMKKLLFQEAHNGPAVEAQEEEEEQDHGVGRTGTVNSVGSNQSIPSMSISASSQSSSVNSLPDASDDKSELDMMEGDHTVMSNSSVIHLKPEEENYQEEGDPRTRASDPQSPPQVSRHKSHYRNREHFATIRTASLVTRQMQEHEQDSELREQMSGYKRMRRQHQKQLMTLENKLKAEMDEHRLRLDKDLETQRNNFAAEMEKLIKKHQAAMEKEAKVMANEEKKFQQHIQAQQKKELNSFLESQKREYKLRKEQLKEELNENQSTPKKEKQEWLSKQKENIQHFQAEEEANLLRRQRQYLELECRRFKRRMLLGRHNLEQDLVREELNKRQTQKDLEHAMLLRQHESMQELEFRHLNTIQKMRCELIRLQHQTELTNQLEYNKRRERELRRKHVMEVRQQPKSLKSKELQIKKQFQDTCKIQTRQYKALRNHLLETTPKSEHKAVLKRLKEEQTRKLAILAEQYDHSINEMLSTQALRLDEAQEAECQVLKMQLQQELELLNAYQSKIKMQAEAQHDRELRELEQRVSLRRALLEQKIEEEMLALQNERTERIRSLLERQAREIEAFDSESMRLGFSNMVLSNLSPEAFSHSYPGASSWSHNPTGGPGPHWGHPMGGTPQAWGHPMQGGPQPWGHPSGPMQGVPRGSSMGVRNSPQALRRTASGGRTEQGMSRSTSVTSQISNGSHMSYT
With B2, the binding entry is “binds”.
